Article PMC5514503
These are yes or no findings as the source states them, for the method shown. Binding seen in cells or lysates may run through a third protein. Some binding calls cover weakened binding; strength is not graded here. Blank lines part the entries; values can stand above or below the substance they belong to.

By UniProt entry, the sequences of proteins in these tests, tags left out. Where a name states a change or a piece, a line headed by the entry shows the natural chain unless it says otherwise. Residues count along the entry.
UniProt Q9BZS1, residues 1-417: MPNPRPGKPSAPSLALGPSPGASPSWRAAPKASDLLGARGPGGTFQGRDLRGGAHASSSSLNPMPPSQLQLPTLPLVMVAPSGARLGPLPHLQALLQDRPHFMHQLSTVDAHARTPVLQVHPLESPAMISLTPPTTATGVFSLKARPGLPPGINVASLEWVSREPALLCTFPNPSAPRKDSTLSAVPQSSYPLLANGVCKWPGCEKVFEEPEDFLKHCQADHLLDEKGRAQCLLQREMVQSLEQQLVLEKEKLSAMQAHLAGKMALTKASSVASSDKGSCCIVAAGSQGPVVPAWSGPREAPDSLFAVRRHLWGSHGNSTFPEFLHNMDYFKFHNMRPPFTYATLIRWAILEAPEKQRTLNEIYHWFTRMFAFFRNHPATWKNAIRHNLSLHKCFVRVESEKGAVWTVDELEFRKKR
UniProt P35222: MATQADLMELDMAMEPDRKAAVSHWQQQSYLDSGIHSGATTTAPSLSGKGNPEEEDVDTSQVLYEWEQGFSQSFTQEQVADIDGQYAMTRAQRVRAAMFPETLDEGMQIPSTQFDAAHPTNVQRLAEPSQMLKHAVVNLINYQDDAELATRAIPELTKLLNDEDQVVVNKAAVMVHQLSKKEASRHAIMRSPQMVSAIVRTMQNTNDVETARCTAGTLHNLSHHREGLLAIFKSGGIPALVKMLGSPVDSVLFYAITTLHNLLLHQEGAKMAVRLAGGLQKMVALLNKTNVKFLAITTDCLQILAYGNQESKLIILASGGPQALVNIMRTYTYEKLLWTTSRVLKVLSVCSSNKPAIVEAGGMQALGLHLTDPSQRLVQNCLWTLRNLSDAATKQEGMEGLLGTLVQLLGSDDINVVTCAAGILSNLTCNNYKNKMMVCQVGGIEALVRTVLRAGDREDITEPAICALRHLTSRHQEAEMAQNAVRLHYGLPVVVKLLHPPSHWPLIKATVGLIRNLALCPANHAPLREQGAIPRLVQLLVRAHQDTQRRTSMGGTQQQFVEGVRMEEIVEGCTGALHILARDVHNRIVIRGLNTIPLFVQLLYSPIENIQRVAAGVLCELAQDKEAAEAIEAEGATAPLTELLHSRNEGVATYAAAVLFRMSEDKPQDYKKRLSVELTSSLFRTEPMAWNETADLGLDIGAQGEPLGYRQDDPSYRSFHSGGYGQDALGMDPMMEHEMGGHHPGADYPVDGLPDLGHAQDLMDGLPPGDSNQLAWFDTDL
UniProt Q9NQB0: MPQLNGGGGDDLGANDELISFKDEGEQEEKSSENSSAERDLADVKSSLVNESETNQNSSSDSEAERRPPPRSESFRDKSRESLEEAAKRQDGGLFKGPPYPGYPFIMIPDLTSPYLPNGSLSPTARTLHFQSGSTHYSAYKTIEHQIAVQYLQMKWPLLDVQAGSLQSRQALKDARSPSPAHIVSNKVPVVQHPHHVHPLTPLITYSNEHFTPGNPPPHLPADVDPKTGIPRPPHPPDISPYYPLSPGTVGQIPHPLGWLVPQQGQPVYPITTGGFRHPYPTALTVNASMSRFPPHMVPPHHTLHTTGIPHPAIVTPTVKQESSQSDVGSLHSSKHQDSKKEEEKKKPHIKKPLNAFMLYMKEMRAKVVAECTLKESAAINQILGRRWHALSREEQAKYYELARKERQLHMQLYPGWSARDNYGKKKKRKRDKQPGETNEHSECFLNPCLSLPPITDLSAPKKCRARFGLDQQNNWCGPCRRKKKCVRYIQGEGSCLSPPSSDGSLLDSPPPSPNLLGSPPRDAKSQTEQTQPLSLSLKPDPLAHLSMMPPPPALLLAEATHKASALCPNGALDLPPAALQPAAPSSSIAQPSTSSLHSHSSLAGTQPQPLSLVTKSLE

Assays:
Assay in all cases: co-IP; HEK-293T cells co-transfected with the indicated plasmids; nuclear protein extracts incubated with anti-FLAG M2 or anti-c-Myc magnetic beads at 4 °C overnight, washed with TBS, eluted, western blot; in Fig. 6c with or without co-expressed FOXP3
[1] = molecular target: Flag-FOXP3 (human) (UniProt Q9BZS1)
[2] = molecular target: Flag-β-catenin (UniProt P35222)
[3] = molecular target: Myc-TCF4 (UniProt Q9NQB0)
[4] = molecular target: Myc-FOXP3 (human) (UniProt Q9BZS1)

binding [1]: binds
Substance: TCF4 (from UniProt Q9NQB0 1-619)

binding [2]: binds | binding [3]: binds
Substance: FOXP3 (from UniProt Q9BZS1-1 1-417)

binding [4]: binds
Substance: β-catenin (from UniProt P35222 1-781)
